The Kd is the concentration at which binding is half-saturated.

Consider 5 sequences from publication PMC9440430, “An intrinsically disordered transcription activation domain increases the DNA binding affinity and reduces the specificity of NFκB p50/RelA”.

The exact form of at least one protein or probe is not confirmed. At least one verdict was read from the data and is not stated in words by the source.

Data set [1] has as its system p50/RelA-FL: p50 subunit (39-350) + RelA-FL (RHD + TAD). The data set is described as follows: fluorescence anisotropy. To be noted: 5' 5AmMC6 amino linker; SEC buffer 25 mM Tris pH 7.5, 150 mM NaCl, 0.5 mM EDTA, 1 mM DTT (FA buffer not stated explicitly; 5 nM DNA, RT incubation, read at 25 C); recombinant protein; protein details: N-terminal His6,none; label: 5' fluorescein (FITC); folded or branched DNA. In general terms: In fluorescence polarisation assays a small probe gives low polarisation when free and higher when bound to something large.

Data set [2] deals with p50/RelA-FL: p50 subunit (39-350) + RelA-RHD (no TAD). Description: fluorescence anisotropy. To be noted: 5' 5AmMC6 amino linker; SEC buffer 25 mM Tris pH 7.5, 150 mM NaCl, 0.5 mM EDTA, 1 mM DTT (FA buffer not stated explicitly; 5 nM DNA, RT incubation, read at 25 C); recombinant protein; protein details: N-terminal His6,none; label: 5' fluorescein (FITC); folded or branched DNA.

As for “AGAGAAATCCCTCCCCCAGGGATTTCTCT [NFKBIA site 2 hairpin]”, the Kd came to 0.006 µM in data set [1] and 0.021 µM in data set [2].

For “GGGAAATTCCTCCCCCAGGAATTTCCC [IFN-beta hairpin]”, the binding result in data set [1] and in data set [2] was “binds” each time.

Turning to “GGGACTTTCCTCCCCCAGGAAAGTCCC [HIV-LTR hairpin]”, the binding result in data set [1] and in data set [2] was “binds” throughout.

As for “GGGAGTTTCCTCCCCCAGGAAACTCCC [RANTES hairpin]”, the binding result in data set [1] and in data set [2] was “binds” in each case.

As for “TGGAAATTCCCTCCCCCAGGGAATTTCCA [NFKBIA site 1 hairpin]”, the binding result in data set [1] and in data set [2] was “binds” throughout.
